Values quoted from earlier work as cited in patent US11022605B2 (priority 2016, dated 2021).
At least one structure is not confirmed: it was looked up by name or label, or the drawing left a doubt.

System: MDR cancer
Conditions: cited from earlier work

Compound: COC(=O)C1=C(C)NC(C)=C(C(=O)OCCN(C)Cc2ccccc2)C1c1cccc([N+](=O)[O-])c1 (stereo not shown) [nicardipine]
- action of the two MDR suppressors with doxorubicin: synergistic
